Results on three molecules are retold here after US20130090371A1, “METHODS AND COMPOSITIONS FOR INHIBITION OF BETA2-ADRENERGIC RECEPTOR DEGRADATION” (PRESIDENT AND FELLOWS OF HARVARD COLLEGE, priority 2010, published 2013).

No constants are given. Whether binding was seen depends on the method and setting. For part of these data: In cells and extracts the contact can be indirect. Some entries that bind do so weakly or less than the wild type. For part of these data: Sequences can lack the tags named with a protein.

The target in assay [1] is mCherry-NEDD4 (UniProt P46934). The experiment in a line: confocal colocalisation in 293β2AR cells after agonist (FIG. 8C).
In assay [2] the target is mCherry-NEDD4 (UniProt P46934). The experiment in a line: confocal colocalisation in β2AR-expressing cells (FIG. 8C).
For assay [3], the target named is T1, NEDD4 E3 ubiquitin ligase (UniProt P46934-4 1-900, limits assumed).
T1 construct: also called ubiquitin ligase NEDD4
T1 sequence (looked up): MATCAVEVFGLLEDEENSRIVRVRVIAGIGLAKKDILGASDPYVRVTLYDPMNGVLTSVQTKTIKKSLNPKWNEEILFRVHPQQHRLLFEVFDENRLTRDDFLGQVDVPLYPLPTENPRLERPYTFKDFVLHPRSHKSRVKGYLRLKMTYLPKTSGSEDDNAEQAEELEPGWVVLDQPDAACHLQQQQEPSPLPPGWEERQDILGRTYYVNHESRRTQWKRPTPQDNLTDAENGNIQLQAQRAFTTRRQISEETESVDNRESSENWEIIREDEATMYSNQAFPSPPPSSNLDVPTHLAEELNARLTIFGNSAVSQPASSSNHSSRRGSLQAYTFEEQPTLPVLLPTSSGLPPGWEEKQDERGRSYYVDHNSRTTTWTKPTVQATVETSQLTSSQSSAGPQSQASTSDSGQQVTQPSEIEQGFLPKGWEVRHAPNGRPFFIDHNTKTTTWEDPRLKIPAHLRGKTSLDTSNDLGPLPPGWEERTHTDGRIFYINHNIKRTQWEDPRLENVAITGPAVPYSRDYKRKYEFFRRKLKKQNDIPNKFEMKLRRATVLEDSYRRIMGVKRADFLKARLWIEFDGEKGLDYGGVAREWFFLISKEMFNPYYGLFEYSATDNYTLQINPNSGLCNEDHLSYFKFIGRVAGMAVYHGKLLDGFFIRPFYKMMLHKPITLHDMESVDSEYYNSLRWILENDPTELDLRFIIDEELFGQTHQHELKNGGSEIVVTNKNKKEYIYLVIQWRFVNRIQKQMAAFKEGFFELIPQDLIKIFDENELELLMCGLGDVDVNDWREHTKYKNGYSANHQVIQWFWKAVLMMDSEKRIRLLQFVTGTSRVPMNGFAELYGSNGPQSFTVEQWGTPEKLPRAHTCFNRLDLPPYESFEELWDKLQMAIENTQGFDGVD
The assay is described as follows: co-immunoprecipitation, immunoblot (FIG. 8B); residual binding of the single mutant is implied. On the technique in general: Immunoblotting shows a protein as a band on a membrane.

Assay [4] deals with T1, NEDD4 E3 ubiquitin ligase. The experiment in a line: co-immunoprecipitation, immunoblot (FIG. 8B).
The target in assay [5] is T1, NEDD4 E3 ubiquitin ligase. The experiment in a line: summary of co-IP results.
Assay [6] concerns the target T1, NEDD4 E3 ubiquitin ligase. The experiment in a line: co-immunoprecipitation from transfected cells, immunoblot (FIG. 8B).

B1: ARRDC3-GFP (protein, human, UniProt Q96B67 1-414, looked up, not shown: large carriers)
chain: MVLGKVKSLTISFDCLNDSNVPVYSSGDTVSGRVNLEVTGEIRVKSLKIHARGHAKVRWTESRNAGSNTAYTQNYTEEVEYFNHKDILIGHERDDDNSEEGFHTIHSGRHEYAFSFELPQTPLATSFEGRHGSVRYWVKAELHRPWLLPVKLKKEFTVFEHIDINTPSLLSPQAGTKEKTLCCWFCTSGPISLSAKIERKGYTPGESIQIFAEIENCSSRMVVPKAAIYQTQAFYAKGKMKEVKQLVANLRGESLSSGKTETWNGKLLKIPPVSPSILDCSIIRVEYSLMVYVDIPGAMDLFLNLPLVIGTIPLHPFGSRTSSVSSQCSMNMNWLSLSLPERPEAPPSYAEVVTEEQRRNNLAPVSACDDFERALQGPLFAYIQEFRFLPPPLYSEIDPNPDQSADDRPSCPSR
For the molecule B1, the binding entry in assay [1] and in assay [2] was “binds” throughout.

B2: ARRDC3-AALA (single PPXY motif mutant of ARRDC3) (protein, human, UniProt Q96B67 1-414, looked up)
chain: MVLGKVKSLTISFDCLNDSNVPVYSSGDTVSGRVNLEVTGEIRVKSLKIHARGHAKVRWTESRNAGSNTAYTQNYTEEVEYFNHKDILIGHERDDDNSEEGFHTIHSGRHEYAFSFELPQTPLATSFEGRHGSVRYWVKAELHRPWLLPVKLKKEFTVFEHIDINTPSLLSPQAGTKEKTLCCWFCTSGPISLSAKIERKGYTPGESIQIFAEIENCSSRMVVPKAAIYQTQAFYAKGKMKEVKQLVANLRGESLSSGKTETWNGKLLKIPPVSPSILDCSIIRVEYSLMVYVDIPGAMDLFLNLPLVIGTIPLHPFGSRTSSVSSQCSMNMNWLSLSLPERPEAPPSYAEVVTEEQRRNNLAPVSACDDFERALQGPLFAYIQEFRFLPAALASEIDPNPDQSADDRPSCPSR
For B2, the binding entry in assay [3] is “binds”.

B3: ARRDC3 (arrestin domain containing 3), wild type (protein, human, UniProt Q96B67 1-414, looked up)
chain: MVLGKVKSLTISFDCLNDSNVPVYSSGDTVSGRVNLEVTGEIRVKSLKIHARGHAKVRWTESRNAGSNTAYTQNYTEEVEYFNHKDILIGHERDDDNSEEGFHTIHSGRHEYAFSFELPQTPLATSFEGRHGSVRYWVKAELHRPWLLPVKLKKEFTVFEHIDINTPSLLSPQAGTKEKTLCCWFCTSGPISLSAKIERKGYTPGESIQIFAEIENCSSRMVVPKAAIYQTQAFYAKGKMKEVKQLVANLRGESLSSGKTETWNGKLLKIPPVSPSILDCSIIRVEYSLMVYVDIPGAMDLFLNLPLVIGTIPLHPFGSRTSSVSSQCSMNMNWLSLSLPERPEAPPSYAEVVTEEQRRNNLAPVSACDDFERALQGPLFAYIQEFRFLPPPLYSEIDPNPDQSADDRPSCPSR
Consider B3, for which the binding result in assay [4], in assay [5] and in assay [6] was “binds” each time.
